Assay results as given in paper PMC3948350.

Protein sequences, listed by entry. Tags and fused reporters are not part of them. Residues count along the entry.
UniProt P04797: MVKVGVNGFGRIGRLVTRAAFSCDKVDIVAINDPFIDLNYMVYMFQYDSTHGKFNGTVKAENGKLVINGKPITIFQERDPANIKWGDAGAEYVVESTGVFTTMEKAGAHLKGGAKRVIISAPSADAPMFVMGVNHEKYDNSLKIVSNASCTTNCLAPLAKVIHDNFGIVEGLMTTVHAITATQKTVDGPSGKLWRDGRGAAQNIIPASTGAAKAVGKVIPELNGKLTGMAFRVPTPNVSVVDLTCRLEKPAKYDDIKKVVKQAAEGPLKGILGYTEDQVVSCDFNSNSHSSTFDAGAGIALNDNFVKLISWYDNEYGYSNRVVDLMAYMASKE
UniProt P48500: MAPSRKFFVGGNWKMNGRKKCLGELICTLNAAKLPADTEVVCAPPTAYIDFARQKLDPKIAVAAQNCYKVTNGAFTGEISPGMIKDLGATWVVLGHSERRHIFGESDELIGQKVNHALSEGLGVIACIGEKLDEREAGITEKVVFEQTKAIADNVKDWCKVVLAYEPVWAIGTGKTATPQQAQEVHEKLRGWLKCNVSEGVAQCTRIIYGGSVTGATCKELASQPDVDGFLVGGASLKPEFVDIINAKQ
UniProt P10719, residues 47-529: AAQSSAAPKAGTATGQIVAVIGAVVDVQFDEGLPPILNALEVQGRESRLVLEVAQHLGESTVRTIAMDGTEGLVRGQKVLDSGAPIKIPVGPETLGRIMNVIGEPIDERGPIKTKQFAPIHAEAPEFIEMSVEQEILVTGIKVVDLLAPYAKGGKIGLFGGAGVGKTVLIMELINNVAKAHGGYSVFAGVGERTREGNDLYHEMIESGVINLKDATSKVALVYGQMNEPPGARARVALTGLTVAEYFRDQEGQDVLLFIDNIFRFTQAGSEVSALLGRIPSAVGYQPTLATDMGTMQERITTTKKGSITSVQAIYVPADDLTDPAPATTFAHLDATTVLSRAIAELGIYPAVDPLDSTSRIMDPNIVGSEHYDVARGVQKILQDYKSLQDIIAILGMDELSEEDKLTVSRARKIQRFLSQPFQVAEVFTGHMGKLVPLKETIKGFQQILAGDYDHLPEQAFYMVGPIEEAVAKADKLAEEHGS

T1: Caveolin-1 (rat (endogenous in abdominal WAT and BAT)) (UniProt P41350)
T1 sequence: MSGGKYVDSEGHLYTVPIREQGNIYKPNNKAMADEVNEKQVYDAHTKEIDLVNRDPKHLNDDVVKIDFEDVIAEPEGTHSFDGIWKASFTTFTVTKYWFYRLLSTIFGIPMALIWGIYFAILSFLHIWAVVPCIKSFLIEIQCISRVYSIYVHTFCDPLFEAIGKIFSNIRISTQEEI


The molecules below were run against T1, Caveolin-1 (rat (endogenous in abdominal WAT and BAT)) (assay: affinity purification with mass spectrometry; co-IP of endogenous CAV1 with anti-CAV1 antibody (Cell Signaling; Thermo Scientific CO-IP kit) from rat abdominal WAT lysate (control, E2-treated and DHT-treated rats); SDS-PAGE, silver staining, bands identified by MALDI-TOF peptide mass fingerprinting (MASCOT); control rabbit IgG sample).

binding | Molecule
binds | N-acetylmuramoyl-L-alanine amidase (rat (endogenous in abdominal WAT))
binds | carbonic anhydrase 3 (protein, UniProt P14141 1-260) MAKEWGYASHNGPEHWHELYPIAKGDNQSPIELHTKDIRHDPSLQPWSVSYDPGSAKTILNNGKTCRVVFDDTFDRSMLRGGPLSGPYRLRQFHLHWGSSDDHGSEHTVDGVKYAAELHLVHWNPKYNTFGEALKQPDGIAVVGIFLKIGREKGEFQILLDALDKIKTKGKEAPFNHFDPSCLFPACRDYWTYHGSFTTPPCEECIVWLLLKEPMTVSSDQMAKLRSLFASAENEPPVPLVGNWRPPQPIKGRVVRASFK

What follows are molecules tested against T1, Caveolin-1 (rat (endogenous in abdominal WAT and BAT)) (assay: affinity purification with mass spectrometry; co-IP of endogenous CAV1 with anti-CAV1 antibody (Cell Signaling; Thermo Scientific CO-IP kit) from rat BAT lysate (control, E2-treated and DHT-treated rats); SDS-PAGE, silver staining, bands identified by MALDI-TOF peptide mass fingerprinting (MASCOT); control rabbit IgG sample).

binding | Molecule
binds | glyceroldehyde-3-phosphate dehydrogenase (from UniProt P04797 1-333)
binds | triose phosphate isomerase 1 (from UniProt P48500 1-249)
binds | aconitate hydratase, mitochondrial precursor (protein, UniProt Q9ER34 28-780) QRAKVAMSHFEPSEYIRYDLLEKNINIVRKRLNRPLTLSEKIVYGHLDDPANQEIERGKTYLRLRPDRVAMQDATAQMAMLQFISSGLPKVAVPSTIHCDHLIEAQLGGEKDLRRAKDINQEVYNFLATAGAKYGVGFWRPGSGIIHQIILENYAYPGVLLIGTDSHTPNGGGLGGICIGVGGADAVDVMAGIPWELKCPKVIGVKLTGTLSGWTSPKDVILKVAGILTVKGGTGAIVEYHGPGVDSISCTGMATICNMGAEIGATTSVFPYNHRMKKYLSKTGRADIANLAEEFKDHLVPDPGCQYDQVIEINLNELKPHINGPFTPDLAHPVADVGTVAEKEGWPLDIRVGLIGSCTNSSYEDMGRSAAVAKQALAHGLKCKSQFTITPGSEQIRATIERDGYAQILRDVGGIVLANACGPCIGQWDRKDIKKGEKNTIVTSYNRNFTGRNDANPETHAFVTSPEIVTALAIAGTLKFNPETDFLTGKDGKKFKLEAPDADELPRSDFDPGQDTYQHPPKDSSGQRVDVSPTSQRLQLLEPFDKWDGKDLEDLQILIKVKGKCTTDHISAAGPWLKFRGHLDNISNNLLIGAINIENGKANSVRNAVTQEFGPVPDTARYYKKHGIRWVVIGDENYGEGSSREHAALEPRHLGGRAIITKSFARIHETNLKKQGLLPLTFADPSDYNKIHPVDKLTIQGLKDFAPGKPLNCIIKHPNGTQETILLNHTFNETQIEWFRAGSALNRMKELQQ

Second part, the molecule before the results:

Molecule | binding
ATP synthase (H+ transporting, mitochondrial F1 complex, beta polypeptide) (from UniProt P10719 47-529) | binds
acetyl-CoA acyltransferase 2, mitochondrial (protein, UniProt P13437 1-397) MALLRGVFIVAAKRTPFGAYGGLLKDFTATDLTEFAARAALSAGKVPPETIDSVIVGNVMQSSSDAAYLARHVGLRVGVPTETGALTLNRLCGSGFQSIVSGCQEICSKDAEVVLCGGTESMSQSPYSVRNVRFGTKFGLDLKLEDTLWAGLTDQHVKLPMGMTAENLAAKYNISREDCDRYALQSQQRWKAANEAGYFNEEMAPIEVKTKKGKQTMQVDEHARPQTTLEQLQNLPPVFKKEGTVTAGNASGMSDGAGVVIIASEDAVKKHNFTPLARVVGYFVSGCDPAIMGIGPVPAITGALKKAGLSLKDMDLIDVNEAFAPQFLAVQKSLDLDPSKTNVSGGAIALGHPLGGSGSRITAHLVHELRRRGGKYAVGSACIGGGQGISLIIQNTA | binds
electron transfer flavoprotein, subunit beta (protein, UniProt Q68FU3 1-255) MAELRALVAVKRVIDFAVKIRVKPDKSGVVTDGVKHSMNPFCEIAVEEAVRLKEKKLVKEIIAVSCGPPQCQETIRTALAMGADRGIHVEVPGAEAENLGPLQVARVLAKLAEKEKVDLLFLGKQAIDDDCNQTGQMTAGLLDWPQGTFASQVTLEGDKVKVEREIDGGLETIRLKLPAVVTADLRLNEPRYATLPNIMKAKKKKIEVIKAGDLGVDLTSKVSVISVEEPPQRLAGVKVETTEDLVAKLKEVGRI | binds

Results are given in words; binding and its absence hold for the method and conditions named. In cells and extracts the contact can be indirect. Here binding means that the protein was enriched with, or labelled near, the bait; the list need not be complete.
